Test [1] addresses StrepHA-SARAF_CytD-SGFP2 Δ2,3 (human) (UniProt Q96BY9). In words: pull-down; Strep-pulldown: StrepHA-SARAF_CytD-SGFP2 (WT or mutants) held on Strep-Tactin XT magnetic beads from cleared lysates of HEK293 (endogenous ALG-2) or HEK293 ALG-2KO cells co-expressing FLAG-ALG-2; HKM, 0.2% Nonidet P-40, 10 μM CaCl2, overnight 4 °C; WB with anti-ALG-2 or anti-FLAG.
The target of test [2] is StrepHA-SARAF_CytD-SGFP2 Δ1,2 (human) (UniProt Q96BY9). The test is described as above.
For test [3], the target named is SGFP2-fused cTAGE5 (human) (UniProt Q96PC5). In words: far-Western, overlay or dot blot; SGFP2-fused proteins immunoprecipitated with anti-GFP pAb from HEK293 ALG-2KD lysates, resolved and blotted; membrane probed with Nluc-ALG-2; luminescence read in TBS containing 100 μM CaCl2; only the binder purified.
For test [4] the target is unchanged. Description: pull-down; SGFP2-fused proteins held on protein G magnetic beads via anti-GFP pAb; incubated with Nluc-ALG-2 (300 ng/mL) in buffer HKM, 0.2% Nonidet P-40, 0.1% gelatin, 100 μM CaCl2, 2 h, 4 °C; bound luciferase activity relative to Sec31A-p (100%); only the binder purified.

Protein sequences, listed by entry. Tags and fused reporters are not part of them. Lines headed by an entry give the natural chain unless they say otherwise; changes in a name come on top.
UniProt Q96BY9: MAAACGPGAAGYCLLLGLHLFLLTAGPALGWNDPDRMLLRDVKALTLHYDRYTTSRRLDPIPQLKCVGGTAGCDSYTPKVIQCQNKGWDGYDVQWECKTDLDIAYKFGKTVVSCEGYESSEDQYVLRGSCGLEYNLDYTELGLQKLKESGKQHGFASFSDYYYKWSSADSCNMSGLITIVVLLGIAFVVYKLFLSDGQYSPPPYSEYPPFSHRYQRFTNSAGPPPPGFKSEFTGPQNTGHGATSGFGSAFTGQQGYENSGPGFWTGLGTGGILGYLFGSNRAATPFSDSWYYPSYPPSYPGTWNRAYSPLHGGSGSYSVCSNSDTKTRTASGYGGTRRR
UniProt Q96PC5: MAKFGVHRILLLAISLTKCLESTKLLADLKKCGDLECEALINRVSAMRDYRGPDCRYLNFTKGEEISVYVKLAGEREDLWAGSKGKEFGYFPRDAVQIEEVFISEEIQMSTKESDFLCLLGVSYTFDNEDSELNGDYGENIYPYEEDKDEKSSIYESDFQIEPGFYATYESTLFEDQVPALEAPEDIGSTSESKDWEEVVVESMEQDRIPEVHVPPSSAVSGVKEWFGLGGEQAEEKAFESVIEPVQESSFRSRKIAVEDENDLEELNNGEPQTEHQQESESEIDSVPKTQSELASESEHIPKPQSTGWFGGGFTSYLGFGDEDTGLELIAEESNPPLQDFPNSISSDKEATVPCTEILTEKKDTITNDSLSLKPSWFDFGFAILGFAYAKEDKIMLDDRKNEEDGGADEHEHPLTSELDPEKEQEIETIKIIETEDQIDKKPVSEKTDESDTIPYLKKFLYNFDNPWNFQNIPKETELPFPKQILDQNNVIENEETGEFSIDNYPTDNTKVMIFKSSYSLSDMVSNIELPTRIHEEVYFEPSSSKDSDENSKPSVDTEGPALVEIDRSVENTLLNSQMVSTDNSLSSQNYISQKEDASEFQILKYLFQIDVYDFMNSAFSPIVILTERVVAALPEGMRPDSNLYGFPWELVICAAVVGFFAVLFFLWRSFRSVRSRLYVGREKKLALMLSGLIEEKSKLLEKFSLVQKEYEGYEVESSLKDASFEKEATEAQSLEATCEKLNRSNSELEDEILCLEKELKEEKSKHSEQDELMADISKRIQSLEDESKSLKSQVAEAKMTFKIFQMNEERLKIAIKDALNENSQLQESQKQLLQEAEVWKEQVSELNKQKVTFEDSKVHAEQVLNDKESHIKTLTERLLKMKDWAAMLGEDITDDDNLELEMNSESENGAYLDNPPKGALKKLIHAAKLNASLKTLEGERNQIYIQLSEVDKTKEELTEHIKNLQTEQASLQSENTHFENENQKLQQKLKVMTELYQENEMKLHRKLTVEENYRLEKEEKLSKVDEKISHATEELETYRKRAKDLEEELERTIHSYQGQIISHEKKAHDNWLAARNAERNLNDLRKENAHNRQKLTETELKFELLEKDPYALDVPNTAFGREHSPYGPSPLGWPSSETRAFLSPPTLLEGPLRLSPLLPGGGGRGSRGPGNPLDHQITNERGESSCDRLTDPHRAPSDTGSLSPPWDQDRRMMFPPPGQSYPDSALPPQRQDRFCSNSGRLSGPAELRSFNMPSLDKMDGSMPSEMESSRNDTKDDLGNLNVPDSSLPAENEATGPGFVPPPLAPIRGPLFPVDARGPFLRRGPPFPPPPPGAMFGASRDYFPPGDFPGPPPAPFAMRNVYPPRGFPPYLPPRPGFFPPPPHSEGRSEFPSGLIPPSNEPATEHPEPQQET
UniProt O75340: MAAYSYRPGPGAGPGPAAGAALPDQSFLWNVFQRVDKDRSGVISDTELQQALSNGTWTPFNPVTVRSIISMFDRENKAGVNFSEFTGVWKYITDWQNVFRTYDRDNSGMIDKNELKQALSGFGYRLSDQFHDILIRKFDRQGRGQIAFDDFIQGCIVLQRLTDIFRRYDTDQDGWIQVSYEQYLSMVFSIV

Results are given in words; binding and its absence hold for the method and conditions named. For some of these results: Binding can be weak; no strength is given. For some of these results: In cells and extracts the contact can be indirect.

On to “endogenous ALG-2 (from UniProt O75340 1-191)”, for which the binding result in test [1] and in test [2] was “no binding” in each case.

Regarding “nanoluciferase (NanoLuc, Nluc)-fused ALG-2 (from UniProt O75340 1-191)”, the binding result in test [3] and in test [4] was “binds” in each case.

The record behind these values is paper PMC7504102.
